Data as given in article PMC3214075.
Residue numbers refer to the chain shown, from its start. No constants are given. Whether binding was seen depends on the method and setting. Binding seen in cells or lysates may run through a third protein. Some binding calls cover weakened binding; strength is not graded here. Sequences can lack the tags named with a protein.

Protein sequences, listed by entry. Tags and fused reporters are not part of them.
UniProt P10415: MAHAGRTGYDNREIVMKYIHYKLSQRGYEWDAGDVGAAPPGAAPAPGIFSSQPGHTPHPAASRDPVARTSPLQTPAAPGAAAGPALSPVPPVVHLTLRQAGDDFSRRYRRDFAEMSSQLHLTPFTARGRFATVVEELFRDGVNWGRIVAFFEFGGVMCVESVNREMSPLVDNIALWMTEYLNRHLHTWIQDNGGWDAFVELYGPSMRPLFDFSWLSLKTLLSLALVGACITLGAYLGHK

Assays:
Assay in all cases: pull-down; GST-BAD (full length, WT or mutants) expressed in 293T cells; equal amounts of whole cell lysate (50 mM HEPES pH 7.5, 0.15 N NaCl, 1.0% NP-40, 1 mM EDTA, 1 mM EGTA, 10% glycerol) incubated with glutathione beads 4 hr at 4°C; blotted with anti-Bcl-2 or anti-14-3-3
[1] = biological target: T1, GST-BAD S111/112/136A, full length (mouse) (UniProt Q61337)
T1 sequence: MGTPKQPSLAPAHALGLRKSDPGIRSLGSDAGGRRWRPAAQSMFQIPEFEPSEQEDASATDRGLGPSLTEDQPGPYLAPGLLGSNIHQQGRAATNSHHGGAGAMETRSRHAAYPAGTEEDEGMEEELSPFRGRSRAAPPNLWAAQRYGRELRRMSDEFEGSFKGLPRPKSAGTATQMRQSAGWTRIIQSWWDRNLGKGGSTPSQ

[2] = biological target: T2, GST-BAD S111/112A, full length (mouse) (UniProt Q61337)
T2 sequence: T1 sequence with A136S

[3] = biological target: T3, GST-BAD S111/136A, full length (mouse) (UniProt Q61337)
T3 sequence: T1 sequence with A112S

[4] = biological target: T4, GST-BAD S111A, full length (mouse) (UniProt Q61337)
T4 sequence: T1 sequence with A112S, A136S

[5] = biological target: T5, GST-BAD S112/136A, full length (mouse) (UniProt Q61337)
T5 sequence: T1 sequence with A111S

[6] = biological target: T6, GST-BAD S136A, full length (mouse) (UniProt Q61337)
T6 sequence: T1 sequence with A111S, A112S

[7] = biological target: T7, GST-BAD wild type, full length (pEBG-BAD) (mouse) (UniProt Q61337)
T7 sequence: T1 sequence with A111S, A112S, A136S

Measured: binding

Bcl-2 (from UniProt P10415 1-239)
binds: all assays above
